Some test systems named below: OR7C2 clone 1292; OR7D2 clone 1405; OR7D4 clone 1298; OR7E24 P242S clone 1314; OR7G1 clone 1295; OR7G2 clone 1475; OR7G3 clone 1297; OR8A1 clone 1503; OR8B12 clone 1731; OR8B4 E22G clone 1227; OR8B8 clone 1226; OR8B8 clone 1504; OR8D1 clone 1142; OR8D2 clone 1179; OR8G1 clone 1395; OR8G5 clone 1323.
What all share (test): odorant receptor activation (CRE luciferase / Renilla) (fold of no-odor wells); higher = more activation
What all share (details): 100 µM

Experiment [1] concerns OR7G2 V263A/F281V clone 1312.
For experiment [2], the system named is OR8B3 H20R/Q24R/V34I/M114I clone 1727.
The subject of experiment [3] is OR8B4 Y131H/C140F/C178R clone 1440.
Experiment [4] relates to OR8D4 C120Y/R133K/F200L/L283P/R298K clone 1072.

Several values for one entry are separate records, joined by “and”; a condition that tells them apart may be missing. Identical values can stand only once. Some of the results follow. Single wells; the ratio to wells without odorant was worked out here, and repeats agree poorly.

For the compound `CCCCCCCOC(C)=O` [heptyl acetate], the odorant receptor activation was 0.869 and 0.822 in the experiment with OR7C2 clone 1292; 0.985 in the experiment with OR7D2 clone 1405; 0.859 and 1.29 with OR7D4 clone 1298; 0.906 and 0.86 in the experiment on OR7E24 P242S clone 1314; 0.998 and 1.11 in the experiment with OR7G1 clone 1295; 1.07 and 0.748 in experiment [1]. The odorant receptor activation in the experiment with OR7G2 clone 1475 was 0.917 and 1.33; with OR7G3 clone 1297, 0.641 and 0.924; in the experiment on OR8A1 clone 1503, 0.772 and 1.21; with OR8B12 clone 1731 it was 0.774; in experiment [2] it was 1.21; in the experiment on OR8B4 E22G clone 1227, 1.08. Also, the odorant receptor activation in experiment [3] is 0.998; with OR8B8 clone 1226 it was 0.866; with OR8B8 clone 1504 it was 0.732 and 1.4; in the experiment with OR8D1 clone 1142, 1.17; in the experiment on OR8D2 clone 1179 it was 0.948; in experiment [4], 2.04. Further, the odorant receptor activation in the experiment on OR8G1 clone 1395 is 0.77; with OR8G5 clone 1323 it was 0.822 and 0.965.
Consider `CC/C=C\CCO` [cis-3-hexen-1-ol], for which the odorant receptor activation with OR7C2 clone 1292 amounted to 0.706; in the experiment on OR7D2 clone 1405 it was 0.342; with OR7D4 clone 1298 it was 0.761; with OR7E24 P242S clone 1314, 0.833; in the experiment with OR7G1 clone 1295, 0.968; in [1], 0.825. Further, the odorant receptor activation with OR7G2 clone 1475 is 1.13; in the experiment with OR7G3 clone 1297, 0.935; with OR8A1 clone 1503, 0.822; in the experiment with OR8B12 clone 1731, 0.836; in experiment [2] it was 1.01; in the experiment with OR8B4 E22G clone 1227, 0.816. Moreover, the odorant receptor activation worked out at 0.117 in experiment [3]; 0.708 in the experiment on OR8B8 clone 1226; 0.82 in the experiment with OR8B8 clone 1504; 1.04 in the experiment with OR8D1 clone 1142; 0.953 in the experiment on OR8D2 clone 1179; 0.964 in experiment [4]. In addition, the odorant receptor activation with OR8G1 clone 1395 worked out at 0.257; in the experiment with OR8G5 clone 1323, 0.916.
Consider `CCCCCCCC=O` [octyl aldehyde], for which the odorant receptor activation in the experiment with OR7C2 clone 1292 is 1.1; in the experiment on OR7D2 clone 1405, 0.683; in the experiment on OR7D4 clone 1298 it was 0.948; in the experiment with OR7E24 P242S clone 1314 it was 1.16; in the experiment with OR7G1 clone 1295, 1.02; in [1], 1.19. Besides, the odorant receptor activation was 1.05 with OR7G2 clone 1475; 1.08 in the experiment on OR7G3 clone 1297; 0.917 with OR8A1 clone 1503; 0.827 with OR8B12 clone 1731; 0.926 in experiment [2]; 1.2 in the experiment on OR8B4 E22G clone 1227. The odorant receptor activation was determined as 0.756 in experiment [3]; 1.17 in the experiment on OR8B8 clone 1226; 0.811 in the experiment with OR8B8 clone 1504; 0.911 in the experiment with OR8D1 clone 1142; 0.955 in the experiment with OR8D2 clone 1179; 1.23 in experiment [4]. In addition, the results for the odorant receptor activation in the experiment with OR8G1 clone 1395 and in the experiment on OR8G5 clone 1323 were 0.835 and 0.953, respectively.
Consider `CCCCCCCCCC=O` [decyl aldehyde], for which the odorant receptor activation in the experiment with OR7C2 clone 1292 turned out to be 1.18; with OR7D2 clone 1405 it was 1.27; in the experiment on OR7D4 clone 1298 it was 1.03; with OR7E24 P242S clone 1314 it was 1.2; in the experiment with OR7G1 clone 1295, 1.42; in [1], 1.22. Besides, the odorant receptor activation in the experiment with OR7G2 clone 1475 was 1.25; with OR7G3 clone 1297, 1.05; in the experiment with OR8A1 clone 1503 it was 1.55; in the experiment with OR8B12 clone 1731 it was 0.864; in [2], 0.399; in the experiment with OR8B4 E22G clone 1227, 1.12. Besides, the odorant receptor activation in experiment [3] is 1.59; with OR8B8 clone 1226 it was 1.21; in the experiment on OR8B8 clone 1504 it was 1.16; with OR8D1 clone 1142 it was 1.58; with OR8D2 clone 1179, 1.14; in experiment [4], 1.31. Further, the odorant receptor activation in the experiment with OR8G1 clone 1395 worked out at 1.47; in the experiment with OR8G5 clone 1323, 1.16.
With `CC(=O)C(C)=O` [diacetyl], the odorant receptor activation was determined as 0.956 in the experiment on OR7C2 clone 1292; 1.31 with OR7D2 clone 1405; 0.957 in the experiment on OR7D4 clone 1298; 1.09 in the experiment with OR7E24 P242S clone 1314; 0.999 in the experiment on OR7G1 clone 1295; 1.19 in experiment [1]. The odorant receptor activation with OR7G2 clone 1475 is 0.952; with OR7G3 clone 1297 it was 1.23; in the experiment on OR8A1 clone 1503, 1.71; in the experiment on OR8B12 clone 1731, 0.901; in experiment [2] it was 0.361; in the experiment on OR8B4 E22G clone 1227 it was 1.23. The odorant receptor activation is 1.52 in experiment [3]; 1.24 in the experiment with OR8B8 clone 1226; 1.23 in the experiment on OR8B8 clone 1504; 1.45 with OR8D1 clone 1142; 0.935 with OR8D2 clone 1179; 1.16 in experiment [4]. The results for the odorant receptor activation in the experiment on OR8G1 clone 1395 and with OR8G5 clone 1323 were 1.55 and 0.974, respectively.
As for `CCCCCC(=O)O` [caproic acid], the odorant receptor activation in the experiment on OR7C2 clone 1292 amounted to 0.665; in the experiment with OR7D2 clone 1405, 0.315; with OR7D4 clone 1298 it was 0.81; in the experiment on OR7E24 P242S clone 1314, 0.738; with OR7G1 clone 1295 it was 0.861; in [1], 0.661. The odorant receptor activation with OR7G2 clone 1475 worked out at 1; in the experiment on OR7G3 clone 1297, 0.976; with OR8A1 clone 1503 it was 1.2; in the experiment on OR8B12 clone 1731, 0.661; in [2], 0.434; in the experiment on OR8B4 E22G clone 1227, 0.984. For the same compound, the odorant receptor activation came out at 0.125 in experiment [3]; 0.852 in the experiment on OR8B8 clone 1226; 0.921 with OR8B8 clone 1504; 1.02 with OR8D1 clone 1142; 0.958 in the experiment with OR8D2 clone 1179; 1 in [4]. In addition, the odorant receptor activation with OR8G1 clone 1395 came to 0.227; in the experiment with OR8G5 clone 1323, 0.823.
In the case of `CC(C)C=O` [isobutyraldehyde], the odorant receptor activation was 1.06 and 1.38 in the experiment with OR7C2 clone 1292; 0.78 in the experiment on OR7D2 clone 1405; 0.914 and 0.907 in the experiment with OR7D4 clone 1298; 0.886 and 1.18 with OR7E24 P242S clone 1314; 0.868 and 0.962 with OR7G1 clone 1295; 1.39 and 0.698 in experiment [1]. In addition, the odorant receptor activation with OR7G2 clone 1475 is 0.893 and 1.07; in the experiment on OR7G3 clone 1297 it was 0.697 and 0.838; in the experiment on OR8A1 clone 1503, 0.934 and 0.988; with OR8B12 clone 1731, 1.01; in experiment [2] it was 0.845; in the experiment with OR8B4 E22G clone 1227, 0.941. Besides, the odorant receptor activation in experiment [3] was 0.831; in the experiment on OR8B8 clone 1226, 0.768; in the experiment on OR8B8 clone 1504 it was 0.953 and 1.19; with OR8D1 clone 1142, 0.994; in the experiment with OR8D2 clone 1179 it was 1.01; in experiment [4] it was 1.18. Besides, the odorant receptor activation was 0.719 in the experiment on OR8G1 clone 1395; 0.72 and 1 with OR8G5 clone 1323.

Source of the values: the odorant receptor screen of Mainland et al. (2015).
